The values below come from paper PMC5302413, “Bifunctional peptide-based opioid agonist/nociceptin antagonist ligand for dual treatment of nociceptive and neuropathic pain” (Pain, 2016).

Counter-ions that a name gives are not always drawn.

The test system of this series is Sprague-Dawley rats. Nature of the series: Whole-body plethysmography, respiratory effects in rats. The conditions noted are these: IV, sigmoidal Emax model, mean (CV%).

Turning to `Cc1cc(O)cc(C)c1C[C@H](N)C(=O)N[C@H](CCCNC(=N)N)C(=O)NC1Cc2ccccc2CN(CCC(N)=O)C1=O` (stereo partly drawn) [KGOP1, H-Dmt-D-Arg-Aba-βAla-NH2], the “Inspiratory time γ (Hill coefficient)” value is given as 2.4 (32.7).
Take `CN1CC[C@]23c4c5ccc(O)c4O[C@H]2[C@@H](O)C=C[C@H]3[C@H]1C5` [Morphine, Morphine sulfate, reference compound]: the “Inspiratory time γ (Hill coefficient)” value was 4.4 (16.7).
Next, `COc1cccc(C2(O)CCCCC2CN(C)C)c1` (stereo not drawn) [Tramadol, Tramadol hydrochloride, reference compound]: 2 (27.5).
